Test results from US9334235B2, “Plasmalogen compounds, pharmaceutical compositions containing the same and methods for treating diseases of the aging” (Phenomenome Discoveries Inc., priority 2008, dated 2016).
At least one structure is not confirmed: it was looked up by name or label, or the drawing left a doubt.

Assays:
[1] = test system: ADAM10; assay: Immunoblotting of membrane-resident protein ADAM10 in HEK293 cells; assay type: cell-based, human; conditions: HEK293 cells depleted of cholesterol by HMGCoA reductase inhibition
Method: (§1) HEK293 cells were treated as described in the amyloid assay. The cell pellet was washed in PBS and lysed in a RIPA buffer containing a protease inhibitor cocktail (Sigma, St. Louis, […].). Protein in the cell lysate was quantified using the Bio-Rad Protein Assay (Bio-Rad, Hercules, Calif.). The following antibodies were used for western analyses: APP (Calbiochem, Darmstadt, Germany), BACE1 and ADAM10 (Millipore, Temecula, Calif.), sAPPα (IBL, Gunma, Japan), SOAT1 (Santa Cruz Biotechnology Inc., CA), and β-actin (Sigma, St. Louis, […].). Immunoprecipitation was carried out to estimate sAPPα in the conditioned medium. Briefly, antibody to sAPPα was added to conditioned media and incubated for 16 hours at 4° C. IP was carried out by incubating with protein A/G agarose beads for 6 hours at 4° C. Beads were washed with PBS and the eluted proteins were detected by immunoblotting with anti-sAPPα antibody. Band intensities were quantified using Image Processing and Analysis in Java (ImageJ) software (National Institutes of Health, Bethesda, Md.)

[2] = test system: HEK293 cells; assay: Cholesterol assay (free/esterified cholesterol) in HEK293 cells; assay type: cell-based, human
Method: (§2) Chinese hamster ovary (CHO), N-Rel^30 (a mutant CHO cell line deficient in the peroxisomal enzyme dihydroxyacetonephosphate acyltransferase), and human embryonic kidney (HEK293) cells were grown in 10 cm^2 dishes in DMEM/Ham's F12 (1:1) containing 10% FBS. Cells were incubated with plasmalogen precursors dissolved in ethanol (final ethanol concentration of 0.1%) and harvested for plasmalogen analysis by LC-MS-MS^31, and cholesterol and cholesterol ester analyses utilizing a commercial colorimetric kit (BioVision #K613).
HEK 293 cells, cultured in DMEM, 10% FBS at 37° C., 5% CO2, were seeded the day before the treatment. The following day, cells membranes were loaded with exogenous cholesterol at a concentration of 10 μg/ml media using methyl-β-cyclodextrin as the carrier to deliver cholesterol as described (Rong et al., 2003).
Cells were treated with the plasmalogen precursor PPI-1005 or with ethanol as the control. […] The dried lipids were resuspended in cholesterol reaction buffer (Biovision, Mountain View, Calif.), and the total, free and esterified fractions of cholesterol were quantified using the cholesterol quantification kit (Biovision, Mountain View, Calif.) as per the manufacturer's recommendations. Cholesterol was initially calculated as μg/million cells, and reported as a percentage of control conditions for each experiment.

[3] = test system: SOAT1; assay: Immunoblotting of membrane-resident protein SOAT1 in HEK293 cells; assay type: cell-based, human; conditions: HEK293 cells depleted of cholesterol by HMGCoA reductase inhibition
Method: as §1

[4] = test system: N-Rel cells; assay: Membrane cholesterol and cholesterol ester analysis (colorimetric kit) in N-Rel cells; assay type: cell-based, Chinese hamster; conditions: 20 μM; 48 hr incubation
Method: as §2

SMILES | ADAM10 protein levels [1] | fraction of free cholesterol in the cells ([2]; HEK293 cells not loaded with cholesterol) | SOAT1 protein levels [3] | membrane free cholesterol [4] | membrane cholesterol (membrane free cholesterol levels) ([2]; 20 μM, 48 hr incubation)
CC[C@H](C)C(=O)O[C@H]1C[C@H](O)C=C2C=C[C@H](C)[C@H](CC[C@@H](O)C[C@@H](O)CC(=O)O)[C@H]21 [pravastatin, reference compound] | remained constant | significantly reduce | remained constant |  | 
CC/C=C\C/C=C\C/C=C\C/C=C\C/C=C\C/C=C\CCC(=O)O [free DHA, docosahexaenoic acid, reference compound] |  |  |  | ineffective | ineffective
